Here are results for one substance from publication PMC5833367.

Sequences of proteins named here, by UniProt entry; tags and fusion partners are left off. Residues count along the entry.
UniProt Q61221: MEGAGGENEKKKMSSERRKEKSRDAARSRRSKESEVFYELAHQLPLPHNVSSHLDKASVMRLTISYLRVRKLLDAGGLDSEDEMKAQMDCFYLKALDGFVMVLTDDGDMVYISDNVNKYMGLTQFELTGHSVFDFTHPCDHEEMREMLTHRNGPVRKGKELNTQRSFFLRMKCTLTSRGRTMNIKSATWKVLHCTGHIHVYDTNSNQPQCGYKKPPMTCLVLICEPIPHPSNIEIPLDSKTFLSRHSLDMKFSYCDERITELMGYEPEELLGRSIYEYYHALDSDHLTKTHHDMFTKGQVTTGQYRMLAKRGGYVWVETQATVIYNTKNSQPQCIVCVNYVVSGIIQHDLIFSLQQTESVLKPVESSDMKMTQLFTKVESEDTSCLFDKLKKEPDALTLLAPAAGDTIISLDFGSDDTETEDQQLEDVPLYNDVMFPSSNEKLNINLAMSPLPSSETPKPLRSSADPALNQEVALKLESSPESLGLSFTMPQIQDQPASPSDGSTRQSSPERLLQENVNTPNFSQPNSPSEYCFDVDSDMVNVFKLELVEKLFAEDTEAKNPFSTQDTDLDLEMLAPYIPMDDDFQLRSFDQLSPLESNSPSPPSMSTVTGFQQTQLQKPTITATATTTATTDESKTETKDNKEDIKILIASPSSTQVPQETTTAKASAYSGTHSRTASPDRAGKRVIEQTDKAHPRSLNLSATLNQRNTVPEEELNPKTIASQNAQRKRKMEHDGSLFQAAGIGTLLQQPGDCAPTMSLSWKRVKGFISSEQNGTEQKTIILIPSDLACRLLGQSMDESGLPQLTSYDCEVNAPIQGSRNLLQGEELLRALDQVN
UniProt P30561, residues 10-848: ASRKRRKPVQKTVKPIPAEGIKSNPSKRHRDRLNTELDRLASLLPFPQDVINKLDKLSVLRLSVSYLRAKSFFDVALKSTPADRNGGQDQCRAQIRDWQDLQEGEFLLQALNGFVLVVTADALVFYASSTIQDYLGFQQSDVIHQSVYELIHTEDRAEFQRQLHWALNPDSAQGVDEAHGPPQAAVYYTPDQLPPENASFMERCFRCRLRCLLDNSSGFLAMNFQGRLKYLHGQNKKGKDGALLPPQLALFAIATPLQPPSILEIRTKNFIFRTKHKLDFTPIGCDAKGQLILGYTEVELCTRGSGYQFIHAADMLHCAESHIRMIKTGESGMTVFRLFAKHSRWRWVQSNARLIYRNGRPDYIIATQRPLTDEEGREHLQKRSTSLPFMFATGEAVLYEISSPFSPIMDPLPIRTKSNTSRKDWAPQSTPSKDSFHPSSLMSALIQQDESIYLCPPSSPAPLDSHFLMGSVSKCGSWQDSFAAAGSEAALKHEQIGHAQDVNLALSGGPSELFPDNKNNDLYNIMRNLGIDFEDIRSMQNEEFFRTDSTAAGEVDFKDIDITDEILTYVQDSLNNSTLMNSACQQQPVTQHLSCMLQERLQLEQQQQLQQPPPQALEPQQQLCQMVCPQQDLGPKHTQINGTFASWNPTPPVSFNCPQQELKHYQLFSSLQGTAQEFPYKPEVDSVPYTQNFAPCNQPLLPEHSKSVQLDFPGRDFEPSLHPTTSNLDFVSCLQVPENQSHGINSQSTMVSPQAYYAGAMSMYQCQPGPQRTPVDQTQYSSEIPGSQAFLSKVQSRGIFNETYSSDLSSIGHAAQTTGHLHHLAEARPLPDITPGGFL
UniProt P53762: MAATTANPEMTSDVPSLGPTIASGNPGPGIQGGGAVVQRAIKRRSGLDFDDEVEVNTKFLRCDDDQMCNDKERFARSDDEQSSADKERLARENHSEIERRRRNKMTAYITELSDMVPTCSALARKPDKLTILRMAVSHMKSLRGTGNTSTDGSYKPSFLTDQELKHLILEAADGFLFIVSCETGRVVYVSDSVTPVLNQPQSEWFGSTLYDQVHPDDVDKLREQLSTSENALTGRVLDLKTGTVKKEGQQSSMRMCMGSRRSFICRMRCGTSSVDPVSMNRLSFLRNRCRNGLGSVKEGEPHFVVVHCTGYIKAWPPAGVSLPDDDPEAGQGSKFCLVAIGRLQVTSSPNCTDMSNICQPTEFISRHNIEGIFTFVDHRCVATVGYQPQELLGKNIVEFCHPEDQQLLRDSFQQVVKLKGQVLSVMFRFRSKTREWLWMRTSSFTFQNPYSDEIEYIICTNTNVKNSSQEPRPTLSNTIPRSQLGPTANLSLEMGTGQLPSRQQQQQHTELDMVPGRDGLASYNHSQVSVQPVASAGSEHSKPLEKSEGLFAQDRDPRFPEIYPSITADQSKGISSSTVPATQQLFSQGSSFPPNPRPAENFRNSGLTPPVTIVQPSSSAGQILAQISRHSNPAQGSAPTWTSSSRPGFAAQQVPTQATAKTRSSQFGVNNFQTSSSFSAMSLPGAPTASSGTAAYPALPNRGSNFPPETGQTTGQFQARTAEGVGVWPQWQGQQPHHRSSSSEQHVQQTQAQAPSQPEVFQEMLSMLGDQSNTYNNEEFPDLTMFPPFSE

No constants are given. Whether binding was seen depends on the method and setting. Binding seen in cells or lysates may run through a third protein. Some results given as binding are weak or reduced against the parent protein; the word gives no strength.

Assay [1] deals with HIF-1α (mouse (endogenous in CD4+ T cells of C57BL/6 mice)) (UniProt Q61221). Nature of the assay: co-IP; HIF-1α/ARNT complexes in mouse CD4+ T cells treated with NOR (1, 3, 10, 30 µM) or TCDD (5 nM) in hypoxia; precipitating antibody not stated.
Assay [2] deals with aryl hydrocarbon receptor (mouse (endogenous in CD4+ T cells of C57BL/6 mice)) (UniProt P30561). The assay can be described thus: co-IP; lysates (stronger RIPA buffer) of mouse CD4+ T cells treated with anti-CD3/CD28 (2 µg/ml), NOR (1, 3, 10, 30 µM) or TCDD (5 nM) in hypoxia for 24 h; precipitated with 1 µg anti-AhR antibody or IgG at 4 °C overnight, protein A/G agarose; western blotting. In general terms: In western blotting, separated proteins are transferred to a membrane and probed.

For the substance ARNT (from UniProt P53762 1-791), the binding result in assay [1] and in assay [2] was “binds” each time.
